This experiment is described as follows: qHTS Assay for Lipid Storage Modulators in Drosophila S3 Cells.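 On cell number change: cells counted by Cell Tracker Red CMTPX staining in the red channel.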 To be noted: BODIPY lipid droplet fluorescence, 18-24 h; for cell number change: measured here: cell count max response, cells fed with added oleic acid. In short, it runs like this:
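Laser-scanning cytometry quantifies lipid droplet accumulation (500–530 nm total intensity; droplet/cell object ratio) in oleic acid-fed (400 uM added) Drosophila S3 cells treated with a concentration series. 20 uM Triacsin C defined 100% inhibition.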
In general terms: Quantitative high-throughput screening tests each substance at several concentrations.

[1] abbreviates: measured here: lipid fluorescence (Fed channel) AC50, cells fed with added oleic acid.
[2] abbreviates: measured here: cell number channel AC50, cells fed with added oleic acid.

The text below walks through data of PubChem BioAssay AID2685 (National Center for Advancing Translational Sciences (NCATS), 2010).

SMILES strings stand for the structures. This is one part of the list. The main result of the screen is listed elsewhere. These columns were measured beside it and carry no call. Most of these compounds were active or inconclusive in the main read-out, so they are no random draw. The note in brackets gives the kind of curve behind each potency; many fits are weak.

The AC50 is the concentration giving half of the maximal activity seen.

`N#Cc1ccccc1Cn1c(-c2cscn2)nc2ccccc21`: the cell number change was 13.1%. Besides, the AC50 under setting [1] is 0.0731 µM [rising, full curve, poor fit].

As to `Cc1cc2cc(CNC(=O)Cc3cccs3)ccc2n1C`, the cell number change turned out to be 6.12%. In addition, under setting [1], the half-maximal activity concentration (AC50) was 2.59 µM [rising, full curve, poor fit]. Take `CCCCc1cc(=O)oc2cc(OC(C)C(=O)NCCN3CCOCC3)c(Cl)cc12` (stereo unspecified): the cell number change is -0.597%. The AC50 under setting [1] is 3.26 µM [falling, partial curve].

For `CCc1cccc(NC(=O)C2CCCN2C(=O)Nc2ccc(C)cc2)c1` (stereo unspecified), the cell number change is -11.4%. Same read-out and setting: the result for `COc1cccc(C2=NOC(C(=O)NCc3cccnc3)C2)c1` (stereo unspecified) reads 6.94%.

As for `COc1ccc(N(CC(=O)N/N=C/c2ccc3c(c2)OCO3)S(=O)(=O)c2ccccc2)cc1`, the cell number change was 164%. Also, the AC50 under setting [2] was 0.116 µM [rising, full curve, poor fit]. Further, the AC50 under setting [1] was 0.13 µM [rising, full curve, poor fit].

`C=CCC1(CC=C)CCCN1C(=O)C1CCC(=O)N(CCc2ccccc2)C1` (stereo unspecified): the cell number change was -56.1%. Further, the AC50 under setting [2] was 23.1 µM [falling, partial curve]. The AC50 under setting [1] was 29.1 µM [falling, single point]. In the case of `O=C(C1CCC(CNS(=O)(=O)c2ccccc2)CC1)N1CCOCC1` (stereo unspecified), the cell number change came out at 15.5%. Also, under setting [1], the AC50 is 13 µM [falling, single point]. For `COCc1cc(=O)n2[nH]c(C)c(-c3ccccc3)c2n1`, the cell number change was -0.263%. Still for that read-out and setting: the result for `CC1=NN(CCC#N)C(=O)/C1=C/c1ccc(N(C)C)cc1` reads 5.28%. On to `Cn1ncc(Cl)c1C(=O)N1CCC(Cc2ccccc2)CC1`, for which the cell number change was determined as 13.6%. Also, the AC50 under setting [1] was 29.1 µM [rising, single point]. Turning to `CCc1ccc(C(C(=O)NC2CCCC2)N(CCOC)C(=O)CCC(=O)Nc2cc(C)on2)cc1` (stereo unspecified), the cell number change was 25.7%. The AC50 under setting [1] is 6.51 µM [falling, partial curve].

For the molecule `COc1ccc(N2C(=O)CCC(C(=O)NCc3ccccn3)C2c2ccc(OC)c(OC)c2)cc1` (stereo unspecified), the cell number change is -80.1%. In addition, the AC50 under setting [2] is 13 µM [falling, partial curve]. Turning to `Cc1ccc(-c2cc(C(=O)N3CCN(c4ncccn4)CC3)c3cc(Br)ccc3n2)o1`, the cell number change came to 46.5%. On the same count and under the same terms, the value for `Cc1ccc(SC(C)C(=O)Nc2ccccc2-c2ccccc2)cc1` (stereo unspecified) was 2.09%. As to `COc1ccc(C(=O)c2cnc[nH]2)cc1`, the cell number change was -20.2%. The AC50 under setting [2] was 0.00517 µM [falling, full curve]. For `Cc1cc(=O)n(C)c(=O)n1CCCCCCOc1ccc([N+](=O)[O-])cc1`, the cell number change is -1.55%. Regarding `Cc1cccc(-c2nc(CN3CCCC(C(=O)NC4CCCCC4)C3)c(C)o2)c1` (stereo unspecified), the cell number change is -58.6%. In addition, the AC50 under setting [2] is 29.1 µM [falling, single point].

For `CCOC(=O)c1c(/N=C/N(C)C)sc(/C=N/Nc2ccccc2)c1-c1ccccc1`, the cell number change is -38.4%. Also, the AC50 under setting [2] is 29.1 µM [falling, single point]. Under setting [1], the AC50 was 0.164 µM [rising, full curve, poor fit]. On to `Cc1ccc(S(=O)(=O)N2CCC(C(=O)NC3CCCC3)CC2)cc1Cl`, for which the cell number change is 8.26%. The AC50 under setting [1] was 2.91 µM [falling, single point]. Consider `COC(=O)C1CSC(c2ccc(Cl)cc2)N1C(=O)c1ccccc1` (stereo unspecified), for which the cell number change was -45.6%. Further, under setting [2], the AC50 was 0.103 µM [falling, full curve]. In addition, the AC50 under setting [1] was 23.1 µM [falling, partial curve]. For `Cc1nnc(-c2cnn(C)c2N)n1Cc1ccccc1`, the AC50 under setting [1] was 0.651 µM [falling, full curve, poor fit]. Regarding `COc1ccc(-n2nc(C(=O)NCC(=O)NCCCN3CCCCCC3)c3ccccc3c2=O)cc1Cl`, the cell number change was -31.9%.

On to `COc1ccc(N2CCN(S(=O)(=O)CCNC(=O)COc3ccccc3OC)CC2)cc1`, for which the AC50 under setting [1] is 6.51 µM [rising, single point]. Regarding `COc1ccccc1CNC(=O)CCc1nc2ccccc2c(=O)[nH]1`, the cell number change was 41.9%. Moreover, under setting [2], the AC50 was 9.2 µM [rising, partial curve, poor fit]. The AC50 under setting [1] was 16.4 µM [rising, partial curve]. With `O=C(NCCN1CCOCC1)c1cc2sccc2n1Cc1ccc(F)cc1`, the cell number change stood at 40.9%. Moreover, the concentration at half-maximal activity (AC50) under setting [2] is 0.291 µM [rising, partial curve, poor fit].

In the case of `Cc1cc(C)n2cc(CSc3nncn3C)nc2n1`, the cell number change was -30.5%. Also, the AC50 under setting [1] was 35.5 µM [falling, partial curve, poor fit].

On to `C[C@@]12C(=O)N(CC3CC3)CC(=O)N1[C@H](/C=C/c1ccccc1)[C@@H]1C(=O)N(c3ccccc3)C(=O)[C@@H]12`, for which the cell number change came out at 0.299%. Also, the AC50 under setting [1] was 29.1 µM [falling, single point]. `COc1ccc(CNC(=O)/C=C/C(=O)O)cc1OC`: the cell number change was determined as 27.5%. Under setting [1], the half-maximal activity concentration (AC50) was 0.058 µM [rising, single point]. `Cc1ccc(NC(=S)N(Cc2cccs2)Cc2cc3cccc(C)c3[nH]c2=O)cc1`: the cell number change was found to be 8.01%. Further, under setting [1], the AC50 is 4.61 µM [rising, single point]. Consider `COC(=O)c1c(C(=O)OC)c(-c2cccc(F)c2)n2c1CS(=O)(=O)C2`, for which the cell number change worked out at 31.5%. In addition, the AC50 under setting [2] was 0.326 µM [rising, full curve, poor fit]. Consider `COC(=O)c1cc(OC)c(OC)cc1NC(=S)N1CCCC(CO)C1` (stereo unspecified), for which the cell number change was found to be 20.6%. With `O=C(NNC(=O)c1ccccc1O)c1ccc(Cl)c(S(=O)(=O)N2CCCCC2)c1`, the cell number change worked out at 19.3%. Turning to `O=C(COC(=O)c1cc(S(=O)(=O)N2CCCCC2)ccc1N1CCOCC1)NC1CCS(=O)(=O)C1` (stereo unspecified), the cell number change is -2.6%. For the same molecule, the AC50 under setting [2] was 0.164 µM [rising, full curve, poor fit]. In addition, the AC50 under setting [1] was 0.326 µM [rising, full curve].

Consider `CC(C)COC(=O)C1C2C=CC3(CN(C4CCCC4)C(=O)C13)O2` (stereo unspecified), for which the cell number change was -44.8%. Further, under setting [2], the concentration at half-maximal activity (AC50) was 1.3 µM [falling, full curve]. Further, under setting [1], the AC50 was 4.11 µM [falling, full curve]. As to `Cc1nc(SCC(=O)c2ccc(Cl)s2)c2oc3ccccc3c2n1`, the cell number change worked out at 22.9%. In addition, under setting [1], the half-maximal activity concentration (AC50) is 3.66 µM [falling, partial curve]. As to `O=C(Nc1cccc(S(=O)(=O)N2CCCCC2)c1)c1ccc(S(=O)(=O)C(F)F)cc1`, the cell number change is -15.1%. Further, the AC50 under setting [2] is 0.00461 µM [rising, full curve, poor fit].

As for `C/C(N)=C(/C#N)C(=O)CSc1nc2scc(-c3ccccc3)c2c(=O)n1C`, the cell number change came to 22.5%. The half-maximal activity concentration (AC50) under setting [1] is 13 µM [rising, partial curve, poor fit]. Consider `OCC[C@H]1C[C@H](O)[C@@H](O)[C@@]2(Cc3ccccc3O2)O1`, for which the cell number change is 29.2%. On the same count and under the same terms, the result for `Cc1ccccc1N1CCN(S(=O)(=O)c2nnc(NC(=O)c3ccco3)s2)CC1` reads 9.79%. As for `CCOc1ccc2[nH]cc(S(=O)(=O)c3ccc(F)cc3)c(=O)c2c1`, the cell number change was -47.8%. The AC50 under setting [2] was 9.2 µM [falling, partial curve]. Besides, the concentration at half-maximal activity (AC50) under setting [1] was 7.31 µM [falling, partial curve]. As to `CC(=O)Oc1c(C)c2c3c(c1OC(C)=O)[C@@H](C)CC[C@@H]3[C@@H](C)C[C@H]2C=C(C)C`, the cell number change was -30.8%. In addition, under setting [2], the AC50 is 9.2 µM [falling, single point]. Besides, the AC50 under setting [1] is 4.61 µM [falling, single point].

Consider `CCn1cc(C(=O)Nc2ccc(NC(=O)c3ccco3)cc2)c(=O)c2ccc(C)nc21`, for which the cell number change is -35.8%. In addition, under setting [2], the concentration at half-maximal activity (AC50) was 0.731 µM [falling, full curve]. Further, the AC50 under setting [1] was 0.58 µM [falling, full curve]. Regarding `O=C(CSc1nnc(-c2ccco2)n1-c1ccccc1)NCc1ccc2c(c1)OCO2`, the cell number change was 8.9%. Besides, the AC50 under setting [1] is 0.00461 µM [falling, full curve, poor fit].

Take `Cc1ccc(C(C)C)c(OCCCCCN2CCOCC2)c1`: the cell number change was 19.8%. Also, the AC50 under setting [1] was 0.58 µM [falling, single point].

`C=CCOC(=O)C1=C(C)OC(N)=C(C#N)C1c1ccc2c(c1)OCO2` (stereo unspecified): the AC50 is, setting by setting: under setting [2], 0.146 µM [rising, full curve]; under setting [1], 0.461 µM [rising, full curve]. Consider `CCOC(=O)C1CCN(C(=O)c2cc(OCC)c(OCC)c(OCC)c2)CC1`, for which the cell number change is -51%. In addition, under setting [2], the AC50 was 29.1 µM [falling, single point]. In the case of `Cn1cc(S(=O)(=O)c2ccccc2)c(=O)c2cc(Cl)ccc21`, the cell number change came out at 7.37%. Also, the concentration at half-maximal activity (AC50) under setting [1] was 6.51 µM [rising, partial curve, poor fit]. With `Cc1ccccc1OCCNC(=O)CSc1ccc(C(F)(F)F)cc1[N+](=O)[O-]`, the cell number change came to 17.9%. The concentration at half-maximal activity (AC50) under setting [1] is 0.0291 µM [rising, full curve, poor fit]. Take `Cc1cc(NC(=O)COC(=O)C(Nc2ccc(C(F)(F)F)cc2Cl)C(C)C)no1` (stereo unspecified): the cell number change was -136%. Moreover, under setting [2], the AC50 was 9.2 µM [falling, partial curve]. In addition, under setting [1], the AC50 was 29.1 µM [falling, partial curve]. Turning to `CCOC(=O)C1=C(COc2ccccc2)NC(=O)NC1c1cccc([N+](=O)[O-])c1` (stereo unspecified), the AC50 under setting [1] is 20.6 µM [falling, partial curve]. Take `CCCNC(=O)c1ccc(N2CC3CC(C2)c2cccc(=O)n2C3)c(NC(=O)Nc2ccc(CC)cc2)c1` (stereo unspecified): under setting [1], the AC50 is 18.4 µM [rising, partial curve, poor fit]. Consider `O=C(C1CCCN(Cc2ccccc2[N+](=O)[O-])C1)N1CCCCC1` (stereo unspecified), for which the cell number change was -14.4%. The same measure, in the same setting: the result for `CC(OC(=O)c1ccccc1NCCO)C(=O)NC1CCCCC1C` (stereo unspecified) reads -20.1%. In the case of `Cc1nn(C)c(Cl)c1CN1CCN(C2CCCC2)C(CCO)C1` (stereo unspecified), the cell number change was 5.48%. For the same molecule, the AC50 under setting [1] is 0.82 µM [rising, single point]. `CSC(=Nc1ccc(Cl)cc1)N[n+]1ccccc1`: the cell number change is -26.8%. In addition, the AC50 under setting [1] is 1.84 µM [falling, full curve, poor fit]. On to `CC1CC(C)CN(C(=O)C2CCN(S(=O)(=O)N3CCC4(CC3)OCCO4)CC2)C1` (stereo unspecified), for which the cell number change was -9.17%. Besides, under setting [1], the concentration at half-maximal activity (AC50) was 0.116 µM [falling, full curve, poor fit]. `COc1cccc(-n2c(=O)c3ccccc3n(CC(=O)NCC3CCCO3)c2=O)c1` (stereo unspecified): the cell number change is -11.3%. As to `Cc1cccc(C2=NC(C(F)(F)F)(C(F)(F)F)c3c(n(-c4ccc(F)cc4)c(=O)[nH]c3=O)N2)c1`, the cell number change worked out at 11.9%. For the same molecule, under setting [1], the AC50 was 32.6 µM [rising, single point]. Consider `Cc1cccc2c1N(C(=O)c1ccco1)C(C)(C)c1ssc(=S)c1-2`, for which the AC50 under setting [1] is 2.06 µM [falling, full curve, poor fit].
